No constants are given. Whether binding was seen depends on the method and setting. Binding seen in cells or lysates may run through a third protein. Some entries that bind do so weakly or less than the wild type. Tags and fused reporters may be left off the sequences shown.
Columns and labels:
[1] = target: BCL-xL (mouse (endogenous in MLE12)) (UniProt Q64373); test: co-IP; immunoprecipitation with anti-BCL-xL antibody from lysate of TSSK4-deficient MLE12 cells, TNF-α stimulation, immunoblotting
[2] = target: BCL-xL (mouse (endogenous in MLE12)) (UniProt Q64373); test: co-IP; immunoprecipitation with anti-BCL-xL antibody from lysate of TSSK4^+ MLE12 cells stimulated without or with TNF-α (20 ng/ml), immunoblotting

The chains behind the UniProt entries cited, without tags or fusion partners.
UniProt Q64373: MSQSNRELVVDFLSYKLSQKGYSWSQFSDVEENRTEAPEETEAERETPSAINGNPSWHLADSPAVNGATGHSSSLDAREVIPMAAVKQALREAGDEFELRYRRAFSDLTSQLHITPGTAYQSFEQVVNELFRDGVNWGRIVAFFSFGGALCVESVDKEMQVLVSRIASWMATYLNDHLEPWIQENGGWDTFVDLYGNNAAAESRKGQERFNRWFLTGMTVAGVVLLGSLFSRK

B1: BAD (BCL2 antagonist of cell death) (protein, UniProt Q61337 1-204)
chain: MGTPKQPSLAPAHALGLRKSDPGIRSLGSDAGGRRWRPAAQSMFQIPEFEPSEQEDASATDRGLGPSLTEDQPGPYLAPGLLGSNIHQQGRAATNSHHGGAGAMETRSRHSSYPAGTEEDEGMEEELSPFRGRSRSAPPNLWAAQRYGRELRRMSDEFEGSFKGLPRPKSAGTATQMRQSAGWTRIIQSWWDRNLGKGGSTPSQ
Which binding [1] does the source give for B1 here?
The binding was “no binding (condition: in TSSK4-deficient cells)”.

And the binding [2]?
Its binding is “binds”.

From PMC8514558
